Source: ChEMBL document CHEMBL3988442, “University of Dundee, Small-Polar-MMV Screening Library” (2021).

Amino acid sequences for entries named in this document (tags omitted). Residues count along the entry.
UniProt P9WNZ1, whole entry: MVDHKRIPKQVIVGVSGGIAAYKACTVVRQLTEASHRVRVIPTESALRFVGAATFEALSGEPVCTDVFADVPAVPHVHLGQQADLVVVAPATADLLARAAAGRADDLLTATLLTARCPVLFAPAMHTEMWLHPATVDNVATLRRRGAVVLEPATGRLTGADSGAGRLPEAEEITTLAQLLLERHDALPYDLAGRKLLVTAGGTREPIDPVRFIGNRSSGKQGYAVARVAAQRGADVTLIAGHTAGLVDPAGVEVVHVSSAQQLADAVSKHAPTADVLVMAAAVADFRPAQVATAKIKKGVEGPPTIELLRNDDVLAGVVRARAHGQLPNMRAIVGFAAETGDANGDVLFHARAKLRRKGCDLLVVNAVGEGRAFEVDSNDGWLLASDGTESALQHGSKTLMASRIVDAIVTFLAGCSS
UniProt I6X8D2, whole entry: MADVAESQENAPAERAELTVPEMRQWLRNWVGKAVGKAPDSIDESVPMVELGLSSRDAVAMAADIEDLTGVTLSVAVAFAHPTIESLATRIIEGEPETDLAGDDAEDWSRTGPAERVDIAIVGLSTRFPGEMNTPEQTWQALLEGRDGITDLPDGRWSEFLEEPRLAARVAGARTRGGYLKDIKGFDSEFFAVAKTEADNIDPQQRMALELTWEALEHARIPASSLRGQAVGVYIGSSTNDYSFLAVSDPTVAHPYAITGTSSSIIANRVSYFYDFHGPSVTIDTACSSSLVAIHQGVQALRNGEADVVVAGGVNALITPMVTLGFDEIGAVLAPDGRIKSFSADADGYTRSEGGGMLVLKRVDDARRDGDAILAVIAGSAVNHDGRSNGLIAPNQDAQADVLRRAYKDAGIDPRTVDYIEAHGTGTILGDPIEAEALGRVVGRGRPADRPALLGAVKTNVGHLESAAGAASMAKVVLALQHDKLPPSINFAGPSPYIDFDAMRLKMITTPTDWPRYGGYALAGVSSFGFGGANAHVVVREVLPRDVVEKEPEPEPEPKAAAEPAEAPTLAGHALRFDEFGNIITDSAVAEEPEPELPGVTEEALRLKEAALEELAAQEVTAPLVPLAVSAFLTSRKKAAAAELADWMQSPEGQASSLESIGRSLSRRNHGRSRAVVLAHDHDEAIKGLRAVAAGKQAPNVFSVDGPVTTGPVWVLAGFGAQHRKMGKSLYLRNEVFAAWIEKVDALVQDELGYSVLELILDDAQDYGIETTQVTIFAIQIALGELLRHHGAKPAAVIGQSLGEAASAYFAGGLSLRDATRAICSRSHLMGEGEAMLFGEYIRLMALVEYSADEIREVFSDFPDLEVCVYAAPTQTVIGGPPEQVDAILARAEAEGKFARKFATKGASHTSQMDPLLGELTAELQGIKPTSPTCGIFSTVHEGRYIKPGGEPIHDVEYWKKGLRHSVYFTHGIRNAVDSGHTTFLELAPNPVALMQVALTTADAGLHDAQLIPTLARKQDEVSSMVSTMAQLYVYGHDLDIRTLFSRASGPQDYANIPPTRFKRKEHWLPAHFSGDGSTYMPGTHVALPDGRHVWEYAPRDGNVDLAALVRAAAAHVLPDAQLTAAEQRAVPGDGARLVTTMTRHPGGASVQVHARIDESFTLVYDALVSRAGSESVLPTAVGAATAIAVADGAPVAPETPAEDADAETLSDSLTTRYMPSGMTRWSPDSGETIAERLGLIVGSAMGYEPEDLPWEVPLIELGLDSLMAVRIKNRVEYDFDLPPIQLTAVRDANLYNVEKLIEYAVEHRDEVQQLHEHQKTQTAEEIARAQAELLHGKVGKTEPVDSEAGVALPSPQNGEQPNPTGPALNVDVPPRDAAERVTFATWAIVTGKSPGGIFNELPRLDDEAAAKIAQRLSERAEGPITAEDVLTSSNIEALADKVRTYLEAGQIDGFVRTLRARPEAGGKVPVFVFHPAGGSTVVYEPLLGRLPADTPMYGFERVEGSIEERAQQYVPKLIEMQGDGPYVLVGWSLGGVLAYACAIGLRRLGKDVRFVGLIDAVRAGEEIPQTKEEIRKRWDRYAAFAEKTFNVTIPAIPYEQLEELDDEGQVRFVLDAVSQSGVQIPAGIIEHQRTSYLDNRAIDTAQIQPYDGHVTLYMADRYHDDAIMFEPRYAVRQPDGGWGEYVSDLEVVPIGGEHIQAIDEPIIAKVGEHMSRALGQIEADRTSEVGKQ
UniProt P9WPC5, whole entry: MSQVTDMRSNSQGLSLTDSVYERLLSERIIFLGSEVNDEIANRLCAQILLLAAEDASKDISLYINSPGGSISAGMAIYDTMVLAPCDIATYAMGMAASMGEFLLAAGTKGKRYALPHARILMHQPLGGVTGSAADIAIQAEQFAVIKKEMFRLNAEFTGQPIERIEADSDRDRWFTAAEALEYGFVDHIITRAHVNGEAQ
UniProt P9WPC3, whole entry partner: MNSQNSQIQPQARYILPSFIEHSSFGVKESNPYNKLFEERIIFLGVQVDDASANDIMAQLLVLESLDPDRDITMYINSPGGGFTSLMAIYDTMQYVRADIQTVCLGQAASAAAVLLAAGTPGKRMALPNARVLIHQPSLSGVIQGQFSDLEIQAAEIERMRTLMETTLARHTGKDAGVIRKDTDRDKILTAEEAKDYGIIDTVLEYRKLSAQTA
UniProt A4I591, 1-473: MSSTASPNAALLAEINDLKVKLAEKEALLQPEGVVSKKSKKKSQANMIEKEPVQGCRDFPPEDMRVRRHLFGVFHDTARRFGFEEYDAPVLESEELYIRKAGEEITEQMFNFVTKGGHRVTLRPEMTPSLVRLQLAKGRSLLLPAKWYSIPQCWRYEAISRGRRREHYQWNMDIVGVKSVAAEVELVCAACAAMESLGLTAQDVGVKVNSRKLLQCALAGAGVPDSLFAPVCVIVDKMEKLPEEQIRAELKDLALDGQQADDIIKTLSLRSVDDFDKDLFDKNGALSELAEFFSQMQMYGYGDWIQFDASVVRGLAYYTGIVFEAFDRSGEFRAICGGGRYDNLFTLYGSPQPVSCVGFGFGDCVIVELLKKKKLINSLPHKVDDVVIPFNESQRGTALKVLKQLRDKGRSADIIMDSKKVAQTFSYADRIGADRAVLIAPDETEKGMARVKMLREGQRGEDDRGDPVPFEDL
UniProt P9WFT3, whole entry: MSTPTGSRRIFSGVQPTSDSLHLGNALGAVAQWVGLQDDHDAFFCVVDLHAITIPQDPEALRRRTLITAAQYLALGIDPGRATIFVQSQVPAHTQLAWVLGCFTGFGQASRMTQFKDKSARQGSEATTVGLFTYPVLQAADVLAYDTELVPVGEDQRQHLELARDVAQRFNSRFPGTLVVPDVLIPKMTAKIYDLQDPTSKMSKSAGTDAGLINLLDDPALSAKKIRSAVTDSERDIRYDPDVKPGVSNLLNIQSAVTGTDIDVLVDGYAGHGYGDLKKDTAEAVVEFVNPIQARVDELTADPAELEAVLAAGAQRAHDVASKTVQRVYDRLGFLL

A: 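Coenzyme A biosynthesis protein CoaBC, Mycobacterium tuberculosis (UniProt P9WNZ1). Enzyme assay of CoaBC with a phosphate dye (Biomol Green) read at 650 nm. Concentration: 30 µM. Direction is inferred from only a few compounds that gave an IC50; most scored high, so higher reads as stronger inhibition. Most strong results did not repeat in a second test. Of about 67,000 compounds tested this way, about 40 (0.06%) reached 50% or more in at least one test.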
B: 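Enzyme assay of the thioesterase domain of polyketide synthase 13; the read-out is not stated. Target: Polyketide synthase Pks13, Mycobacterium tuberculosis (UniProt I6X8D2). Compounds at 30 µM. The record gives no direction; the compounds picked for IC50 retests had high values, so higher reads as stronger inhibition. Of about 67,000 compounds tested this way, about 300 (0.46%) reached 50% or more in at least one test.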
C: 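ClpP1P2, Mycobacterium tuberculosis (UniProt P9WPC5 and UniProt P9WPC3). Protease assay of ClpP1P2, read by the AMC dye that it sets free. Concentration: 50 µM. Higher reads as stronger inhibition, judged from the few compounds that gave an IC50. Most other retested compounds had strongly negative values. Size under these conditions: about 69,000 compounds, about 10 of them at 50% or above in at least one test.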
D: 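Assay of Toxoplasma gondii numbers, read through their beta-galactosidase reporter with a colour substrate. Tested at 10 µM. The record gives no direction; the compounds picked for IC50 retests had high values, so higher reads as fewer parasites. Of about 67,000 compounds tested this way, about 260 (0.38%) reached 50% or more in at least one test.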
E: 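Histidine-tRNA ligase, Leishmania infantum (UniProt A4I591). Enzyme assay of histidyl-tRNA synthetase; the read-out is not stated. Compounds at 30 µM. The record gives no direction; compounds that gave an IC50 in retests scored well above the rest, so higher reads as stronger inhibition. The assay is labelled LdHisRS but filed under L. infantum. About 69,000 compounds were tested under these conditions; 0.6% (about 410) showed 50% or more at least once.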
F: 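Tryptophan-tRNA ligase, Mycobacterium tuberculosis (UniProt P9WFT3). Enzyme assay of tryptophanyl-tRNA synthetase; the read-out is not stated. Compounds at 10 µM. Direction is not recorded; retested compounds ran higher, which suggests that high means inhibition. Of about 65,000 compounds tested this way, about 64 (0.098%) reached 50% or more in at least one test.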

Values are the deposited “Percent Effect”, in %. How 0% and 100% were set is not recorded. Most values in the screen are low, and negative values occur. This is an unselected part of the compounds tested. Two or more numbers in one place are separate tests of the same structure; such repeats can differ widely. A dash means the value is not listed here; it may have been measured.

structure,A,B,C,D,E,F
CNc1cc(C2CN(C(=O)c3cnn(C)c3)CCO2)nc(C)n1 (centres unmarked),-12.15,-9.144,-5.513,-0.2113,7.092,15.77
O=C(NC1CC1)N1CCc2ccc(=O)n(Cc3cccnc3)c2CC1.O=C(O)C(F)(F)F,-,-,-,-9.386,-,-
C=C(C)CN(CC)S(=O)(=O)c1cccc(F)c1C#N,5.835,-27.09,1.062,5.605,-1.587,-1.312
[H][C@]12CNC[C@@]1(C(=O)NC1CCN(c3ncccc3C#N)CC1)CN(C)C2,-,-,-,10.93,-,-
CC(C)NC(=O)[C@H]1C[C@@H]2[C@@H](C1)OCCN2CC1CC1,0.6342,-24.47,1.789,-,10.53,-2.607
CCN(CC)Cc1cn2c(n1)CN(C(=O)c1cc(C)on1)CC2.O=C(O)C(F)(F)F,-,-,-,-0.8069,-,-
CCN(CC)S(=O)(=O)c1ccc2c(c1)N(Cc1cccnc1)C(=O)CS2,3.821,-32.12,-9.802,-5.352,13.7,-0.5089
O=C(O)C(F)(F)F.[H][C@@]12CCN(CC3CCOCC3)C[C@@]1([H])O[C@@H](c1nc(C)no1)C2,-,-,-,-8.225,-,-
CSC1(CNC(=O)NCc2sccc2C)CCOCC1,-3.893,4.462,-10.27,-29.94,20,0.3631
CCn1nc(CC(C)C)cc1C(=O)NCc1c(C)cc(C)nc1OC,1.564,-21.37,7.327,13.84,8.989,0.4402
CC(=O)N1CCC(c2nccnc2Oc2ccccc2)CC1,-2.222,-26.79,-0.5086,10.44,8.333,-1.421
CCN(CC1CCCO1)S(=O)(=O)c1cc(NC(C)=O)ccc1C (centres unmarked),9.829,-39.91,-13.33,8.565,8.547,1.356
c1ccc(Cc2noc(CN3CCCC3C3CCCCC3)n2)cc1 (centres unmarked),-2.161,-2.809,-4.503,-2.513,-2.632,5.498
Cc1noc(C)c1C(=O)N(C)Cc1nc(-c2ccccn2)no1,-2.679,-13.24,-11.1,-1.762,20.39,2.842
CO[C@H]1CN(C(=O)c2cc3ccccc3[nH]2)CC[C@H]1N,6.42,-39.37,0.6742,13.42,12.59,11.28
O=S(=O)(NC1CC1)c1cccc(Br)c1,-7.066,-13.27,12.34,20.38,8.621,-4.114
C[C@H](O)CNc1cc(-c2cn[nH]c2)ncn1,2.53,4.418,13.02,8.89,11.43,-
Cn1cnc2c1C(COCc1cccnc1)N(Cc1ccccc1)CC2 (centres unmarked),-12.9,-39.91,-13.08,5.419,30.56,-7.528
CCN1CCC2(CCN(c3ncccn3)CC2)C1=O.O=C(O)C(F)(F)F,-,-,-,-9.904,-,-
CCn1ncc2c1CCCC2NCC1=Cc2ccccc2OC1 (centres unmarked),-1.044,-6.35,-1.136,3.206,8.108,-3.801
CN(C)C(=O)C1OC2(CCN(c3ncc(F)cn3)CC2)c2ccccc21 (centres unmarked),0,13.5,-6.284,-,33.33,-0.5533
c1ccc(-c2cc(CNCCCC3CCOC3)c3nnnn3c2)cc1 (centres unmarked),0.9732,26.84,-15.33,-,9.474,-2.261
CNC(=O)C1CCN(C(=O)NCc2ccc(C)n2C)CC1,-5.697,-6.791,0.1982,0.8021,11.4,2.178
CCN1CCOCC2(CCCN(C(=O)c3cnccn3)C2)C1 (centres unmarked),25.88 & 14.95,-22.21,0.07781,7.574,4.587,-6.799
CC1=CC[C@@H]2CN(C(=O)c3ccc(-c4nnn(C)n4)cc3)C[C@@H]2C1,8.442,-74.51,-5.196,-,18.03,-1.932
COCc1cnc2n1CCN(C1CCCC1)C2C.O=C(O)C(F)(F)F (centres unmarked),-,-,-,1.232,-,-
Cn1ccnc1N1CCN(C(=O)Cc2ccccc2)CC1,3.557,-23.89,11.39,-,13.7,5.768
CCn1nc(C)c(C(=O)N2C[C@@H](CN(C)C)[C@@H](CO)C2)c1C,-3.883,9.265,21.48,18.25,1.176,0.757
CC(C)COCCC(=O)Nc1cccnc1-n1cncn1,-0.3367,-14.42,9.525,7.128,21.51,1.917
CN(C)CCCNC(=O)c1cc(Cl)ccc1Cl,-0.3645,-3.378,-6.213,-,21.74,1.286
Cc1occc(=O)c1OCC(=O)N1CCc2ccccc2C1,0.5063,-6.347,-14.23,11.36,13.16,-1.568
CN(C)CCCN1CC2(CCN(C(=O)C3(C)CCCCO3)CC2)OC1=O (centres unmarked),-2.457,-0.9557,-7.853,-11.98,19.35,4.615
COc1cc2nc(C)n(CC(=O)O)c(=O)c2cc1OC,-6.057,-36.62,2.619,2.032,5.825,2.814
COc1ccc(C(=O)NCC(C)(O)CCc2ccccc2)cc1 (centres unmarked),-1.057,-18.96,-7.42,-15.83,10.43,-1.9
O=C1[C@H]2CN(Cc3ccco3)C[C@H]2CN1c1cncnc1,-5.057,-34.67,4.113,-,31.51,2.651
COc1ccccc1NCC(=O)NCc1cc[nH]n1,-,-22.77,6.44,-1.826,14.17,4.541
N#CC1(NC(=O)c2ccc(-c3nc(C4CC4)n[nH]3)cc2)CCSC1 (centres unmarked),0.6361,-2.082,-11.91,-4.998,12.2,-5.197
COc1ccc(C(C)NC(=O)NCCc2ccc(C)nc2)c(OC)c1 (centres unmarked),-,-13.59,-3.988,-3.196,15.83,4.747
COCCN1CCc2cc(C(=O)N(C)C)c(NC(C)C)nc2CC1.O=C(O)C(F)(F)F.O=C(O)C(F)(F)F,-,-,-,-0.3721,-,-
N#Cc1cccc(N2CCCC(CO)(CCOc3ccccc3)C2)n1 (centres unmarked),2.92,132.1,-9.141,-25.91,22.22,-6.173
[H][C@]12CCN(C(=O)C3CCCO3)CC[C@@]1([H])S(=O)(=O)N(Cc1ccccc1)C2 (some centres unmarked),-,-,-,-0.8091,-,-
CC(C)n1ccc2c(NC(=O)c3n[nH]c4c3CCC4)cccc21,4.01,9.245,2.715,-,-8.696,-12.06
CSc1nccc(N2C[C@@H]3CC[C@H](C2)N(CC2CCC2)C3=O)n1,-8.636,-8.585,6.288,-,10.96,-3.866
O=C(c1ccnn1COc1ccc(Cl)cc1)N1CCOCC1,6.25,9.976,-12.88,-1.06,-3.371,-4.288
C1CN(c2nc(C3CC3)ns2)CCO1,-5.134,-13.31,0.03612,1.57,19.35,0.5482
Cc1n[nH]cc1C(=O)N1CCCC1c1cc[nH]n1 (centres unmarked),-2.101,8.695,-0.2416,1.983,8.966,-2.51
N#Cc1ccsc1NC(=O)CN1CCOC(Cn2cccn2)C1 (centres unmarked),1.79,-18.09,-15.01,22.99,3.67,10.4
O=C(O)C(F)(F)F.O=C(O)C(F)(F)F.[H][C@@]12CN(Cc3csc(C)n3)C[C@H](C(=O)NCCOC)[C@]1([H])CCO2,-,-,-,6.435,-,-
CNS(=O)(=O)Cc1ccc(CNC(=O)c2ccc(C)[nH]c2=O)cc1,0,-1.738,8.655,4.023,21.92,-2.478
Cc1nc(C(=O)N2CCCC2c2noc(C)n2)c[nH]1 (centres unmarked),2.35,-14.84,-18.21,2.768,-20.69,-5.542
O=C(O)C(F)(F)F.[H][C@@]12CCN(C(=O)c3cnoc3C)[C@@]1([H])CC(=O)N2Cc1cccnc1,-,-,-,6.625,-,-
CN(C)c1ncc(-c2cc(C(=O)NCCC#N)n(CC3CC3)c2)cn1,-4.348,1.83,-11.46,-,12.33,2.545